Measured values taken from paper PMC12587390, “Metabolite Identification Data in Drug Discovery, Part 1: Data Generation and Trend Analysis” (Molecular Pharmaceutics, 2025).
≈ marks a conversion by molar mass, not a printed value.

Assays:
human hepatocytes = assay: Metabolite identification in human hepatocyte incubations; type: in vitro ADME; details: 4 μM
Description: (§1) Cryopreserved, pooled primary human, dog, and rat hepatocytes were obtained from BioIVT (previously Celsis IVT). L-15 Leibovitz buffer was placed in a water bath to reach 37 °C. Cryopreserved hepatocytes were transferred from a −150 °C freezer on dry ice and immediately immersed in a preheated water bath kept at 37 °C for thawing. When only a small ice crystal could be seen, the content was emptied into a 50 mL falcon tube filled with warm buffer (maximum four vials/falcon tube). The suspension was centrifuged at room temperature for 3 min at 50 g. The supernatant was removed, the pellet was resuspended in a small volume of buffer, and the falcon tube was refilled with buffer, followed by another centrifugation to wash away any remaining storage buffer. Thereafter, the supernatant was removed, and the pellet was dissolved in a small volume of buffer and diluted to a concentration of about 3–5 million cells/mL. After counting the cells using a Casy cell counter, the suspension was diluted to 1 million viable cells/mL and kept at room temperature until use. The viability cutoff was 80%.
(§2) An aliquot of 245 μL of hepatocyte suspension was added to a round-bottomed 96-deep-well plate using a manual multipipette. The deep-well plate was preincubated for 15 min at 37 °C and 13 Hz. […]

dog hepatocytes = assay: Metabolite identification in dog hepatocyte incubations; type: in vitro ADME; details: Cmpd 16 incubated for 120 min, 4 μM
Description: as §1, §2

physchem [1] = details: pH 7.4
physchem [2] = details: 25 °C, pH 7.4, aqueous buffer, thermodynamic from solid

Metabolites / metabolic pathways identified (human hepatocytes): amide hydrolysis was not detected
% of the total MS area, Dog Hepatocytes (Mixed gender) (dog hepatocytes): 91%
logD (physchem [1]): 3.4
solubility (physchem [2]): 73 µM (≈ 32.5 µg/mL)
SMILES: Cn1cc(NC(=O)C2CCCCC2C(=O)c2ccc(-c3cc[nH]n3)cc2)c(C(F)(F)F)n1 (stereo not shown) [Cmpd 16, Cn1cc(NC(=O)[C@@H]2CCCC[C@H]2C(=O)c2ccc(-c3cc[nH]n3)cc2)c(C(F)(F)F)n1]
